From patent US9962453B2, “Immunogenic compound” (ALTIMMUNE UK LIMITED, priority 2013, dated 2018)
Some entries share one result that the patent states for a list of compounds.

Experiment: Particle size measurement (dynamic light scattering) and visual solubility in aqueous solutions
Settings: water, 28 mM L-Histidine and eventually other aqueous solutions with higher ionic strength and/or pH

Substance: Ac-RRLLPAPLALPAPLLRRL-NH2 [Peptide 1, Ac-RRLLPAPLALPAPLLRRL-NH2]
- apparent solubility: apparent solubility in water, 28 mM L-Histidine and eventually other aqueous solutions
